PubChem BioAssay AID200 (DTP/NCI, 2004)
The list shows only some results of the screen, not a fair sample: it is rich in T/C values a quarter to a half above the control, in often repeated tests (any T/C) and in doses without a T/C. Further doses and runs are listed elsewhere. T/C gives the treated animals as a percentage of the vehicle group. Some entries give survivors of the animals treated and no T/C: the source holds a T/C of zero for them, seemingly a mark for toxic or unscored doses. Some survivor counts are full or nearly so, which does not show that the dose was tolerated: survival well below the control is almost never listed, so the zero probably covers shortened survival too. Counts of survivors are from the toxicity check (mostly the fifth day) where no day follows; animals may have died later. Schedule codes are those of the source, read here as Q, the interval in days (D) or hours (H), X, the number of doses. Some doses were run more than once; the results are listed from low to high. For survival time, the PubChem record calls one and a half times the control and up active, and a quarter to a half above the control has no call in these data; cut-offs in other NCI protocols can differ. Some T/C values are followed by the survivors on the day toxicity was checked, most often the fifth; where none is given, no animal had died by that day.

System: B6C3F1 mice, B16 melanoma ip, median survival T/C
Test: NCI In Vivo Anticancer Drug Screen. Data for tumor model B16 Melanoma (intraperitoneal) in B6C3F1 mice
Conditions: T/C endpoint: median survival time, schedule: Q01DX009 (ip), higher T/C = longer survival
How it was run: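 Transplantable tumor in mice; treated vs vehicle control groups; survival or tumor size measured; value = T/C ratio.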

[1] = dose: 50.0 mg/kg/injection, vehicle: saline with Tween-80

CSCCC(NC(=O)CNC(=O)OCc1ccccc1)C(=O)O (centres undefined)
T/C (dose: 25.0 mg/kg/injection, vehicle: Klucel (hydroxypropylcellulose) (HPC)): 127 % of control

C[n+]1c(-c2cccc(OCCCCCCCOc3cccc(-c4c5cc(N)ccc5c5ccc(N)cc5[n+]4C)c3)c2)c2cc(N)ccc2c2ccc(N)cc21
T/C (dose: 0.08 mg/kg/injection, vehicle: water): 134 % of control | T/C (dose: 0.15 mg/kg/injection, vehicle: water): 134 % of control | survivor count (dose: 0.3 mg/kg/injection, vehicle: water): 10 of 10

C=C(C)C(=O)N(C)C(C)C(=O)OC1CC(=O)N(C)c2cc(cc(OC)c2Cl)C(OC)C(C)=C/C=C/C(OC)C2(O)CC(OC(=O)N2)C(C)C2OC12C (centres undefined)
T/C (dose: 4.0 micrograms/kg/injection, vehicle: saline): 145 % of control

C[n+]1c(/C=C\C=C\N2CCCCC2)sc2ccccc21
T/C (dose: 0.06 mg/kg/injection, vehicle: Klucel (hydroxypropylcellulose) (HPC)): 126 % of control

Nc1cc(Cl)c2[nH]cnc2n1
survivor count (dose: 200.0 mg/kg/injection, vehicle: distilled water + Tween-80): 8 of 9

CSC1SCC2C(=O)N(C)C(C(C)C)C(=O)OCC(NC(=O)c3cnc4ccccc4n3)C(=O)NC(C)C(=O)N(C)C1C(=O)N(C)C(C(C)C)C(=O)OCC(NC(=O)c1cnc3ccccc3n1)C(=O)NC(C)C(=O)N2C (centres undefined)
T/C (dose: 8.0 micrograms/kg/injection, vehicle: saline): 137 % of control | T/C (dose: 15.0 micrograms/kg/injection, vehicle: saline): 146 % of control | T/C (dose: 16.0 micrograms/kg/injection, vehicle: saline): 147 % of control | T/C (dose: 30.0 micrograms/kg/injection, vehicle: saline with Tween-80): 126 % of control | T/C (dose: 120.0 micrograms/kg/injection, vehicle: saline with Tween-80): 138 % of control | T/C (dose: 240.0 micrograms/kg/injection, vehicle: saline with Tween-80): 138 % of control | survivor count (dose: 480.0 micrograms/kg/injection, vehicle: saline): 6 of 10

COc1ccc2c3c1OC1C(=O)CCC4C(C2)N(C)CCC314 (centres undefined)
survivor count (dose: 62.0 mg/kg/injection, vehicle: saline): 4 of 10 | survivor count (dose: 124.0 mg/kg/injection, vehicle: saline): 0 of 10

O=CNCC(=O)O
survivor count (dose: 200.0 mg/kg/injection, vehicle: saline): 10 of 10

C/C=C1\C[C@@H]2C(OC)Nc3cc(O)c(OC)cc3C(=O)N2C1 (some centres undefined)
T/C (dose: 0.25 mg/kg/injection, vehicle: suspension in saline): 129 % of control [9 of 10 alive] | survivor count (dose: 0.5 mg/kg/injection, vehicle: suspension in saline): 8 of 10 | survivor count (dose: 1.0 mg/kg/injection, vehicle: suspension in saline): 5 of 10

c1cc(-c2cc3ccc(C4=NCCN4)cc3[nH]2)ccc1C1=NCCN1
survivor count (dose: 25.0 mg/kg/injection, vehicle: suspension in saline): 9 of 10 | survivor count (dose: 50.0 mg/kg/injection, vehicle: saline): 10 of 10 | survivor count (dose: 50.0 mg/kg/injection, vehicle: suspension in saline): 4 of 10 | survivor count (dose: 100.0 mg/kg/injection, vehicle: saline): 0 of 10 | survivor count (dose: 100.0 mg/kg/injection, vehicle: suspension in saline): 0 of 10

CSCS(=O)C[C@H](CO)NC(=O)/C=C/c1c(C)[nH]c(=O)[nH]c1=O (some centres undefined)
survivor count (dose: 0.5 mg/kg/injection, vehicle: saline): 9 of 10 | survivor count (dose: 1.0 mg/kg/injection, vehicle: saline): 7 of 10

Cc1ccc(S(=O)(=O)OCOS(=O)(=O)c2ccc(C)cc2)cc1
T/C (dose: 100.0 mg/kg/injection, vehicle: Klucel (hydroxypropylcellulose) (HPC)): 146 % of control | T/C (dose: 200.0 mg/kg/injection, vehicle: Klucel (hydroxypropylcellulose) (HPC)): 138 % of control | T/C (dose: 400.0 mg/kg/injection, vehicle: Klucel (hydroxypropylcellulose) (HPC)): 138 % of control [9 of 10 alive] | survivor count (dose: 800.0 mg/kg/injection, vehicle: Klucel (hydroxypropylcellulose) (HPC)): 7 of 10 and 10 of 10

CC[n+]1c(-c2ccccc2)c2cc(N)ccc2c2ccc(N)cc21
T/C (dose: 1.5 mg/kg/injection, vehicle: water): 125 % of control | T/C (dose: 6.0 mg/kg/injection, vehicle: water): 128 % of control | T/C (dose: 12.0 mg/kg/injection, vehicle: water): 139 % of control | survivor count (dose: 24.0 mg/kg/injection, vehicle: water): 10 of 10

CC1=C(O)C(=O)[C@@H]2O[C@@H]2C1=O
survivor count (dose: 25.0 mg/kg/injection, vehicle: saline): 5 of 10 and 6 of 10

CO[C@@]12[C@@H]3N[C@@H]3CN1C1=C(C(=O)C(N3CCCC3)=C(C)C1=O)[C@@H]2COC(N)=O
survivor count (dose: 12.5 mg/kg/injection, vehicle: saline with Tween-80): 10 of 10 | survivor count (dose: 25.0 mg/kg/injection, vehicle: saline with Tween-80): 5 of 10 | survivor count [1]: 2 of 10

C=CCNC(=O)c1ccccc1SC(C)=O
survivor count [1]: 10 of 10 | T/C (dose: 200.0 mg/kg/injection, vehicle: saline + Tween-80 + alcohol): 132 % of control | T/C (dose: 400.0 mg/kg/injection, vehicle: saline + Tween-80 + alcohol): 145 % of control [8 of 9 alive] | survivor count (dose: 800.0 mg/kg/injection, vehicle: saline + Tween-80 + alcohol): 0 of 10 and 1 of 10 | survivor count (dose: 800.0 mg/kg/injection, vehicle: saline with Tween-80): 0 of 10
